For 1 substance, binding results are on record in article PMC9050003, “N- and C-terminal regions of the small heat shock protein IbpA from Acholeplasma laidlawii competitively govern its oligomerization pattern and chaperone-like activity†” (RSC Advances, 2020).

The chains behind the UniProt entries cited, without tags or fusion partners. Where a name states a change or a piece, a line headed by the entry shows the natural chain unless it says otherwise.
UniProt P01317: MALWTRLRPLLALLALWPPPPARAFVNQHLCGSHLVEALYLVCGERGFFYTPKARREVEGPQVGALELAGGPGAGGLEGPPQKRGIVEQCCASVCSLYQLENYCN

Numbering of substitutions follows the chain as printed. Results are given in words; binding and its absence hold for the method and conditions named. Some binding calls cover weakened binding; strength is not graded here. For some assays here: Sequences can lack the tags named with a protein.

Test [1] deals with T1, full-length recombinant AlIbpA (small heat shock protein IbpA from Acholeplasma laidlawii), His6-tagged (Acholeplasma laidlawii) (UniProt A9NFB2).
T1 sequence: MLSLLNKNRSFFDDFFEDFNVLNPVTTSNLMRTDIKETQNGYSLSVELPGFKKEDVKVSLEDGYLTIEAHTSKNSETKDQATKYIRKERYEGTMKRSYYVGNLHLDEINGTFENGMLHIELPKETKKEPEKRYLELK
Kind of test: SPR; BIAcore T200; His6-AlIbpA proteins immobilised on Ni2+-loaded NTA chip (FC2, about 2000 RU); His6-TnrA20 on FC1 as control, response difference FC2 − FC1; ADH 1.0 mg ml^−1 injected at 10 μl min^−1; 10 mM Na2HPO4, 150 mM NaCl, pH 7.4; KD calculated from the binding curve slopes; both purified.

In test [2] the target is T2, AlIbpASEP (Acholeplasma laidlawii) (UniProt A9NFB2).
T2 sequence: T1 sequence with L134S, L136P
Kind of test: pull-down; His6-AlIbpA proteins (0.4 mg) and bovine insulin (0.4 mg) in 300 μl 50 mM Tris–HCl pH 8.0, 200 mM NaCl, 30 min at 37 °C; Ni-NTA sepharose, eluted with 500 mM imidazole; 17.5% SDS-PAGE; grade from the ratio of band densities; both purified.

In the case of “bovine insulin (from UniProt P01317 25-54; P01317 85-105)”, the figures for the binding entry in test [1] and in test [2] were “binds weakly” and “no binding (tested: 0.4 mg of each protein in 300 μl)”, respectively.
